Measurements taken from the supplement of paper PMC8551327.
The other results are listed elsewhere or left out. Cut-off read from the data, not from the text of the source: active = 1.25 or more and inactive = the rest. Single values are uncertain, as repeats are few or missing.

System: Kcc2-LUC knock-in mouse primary cortical neurons (Kcc2 promoter reporter)
Experiment: Kcc2 promoter-driven luciferase activity relative to vehicle control (fold of vehicle (ratio)); higher = stronger Kcc2 promoter activation (Kcc2 expression enhancer)
Conditions: 100 nM; 48 h

| SMILES | Kcc2 promoter-driven luciferase activity |
| --- | --- |
| O=C1c2c(O)ccc(O)c2C(=O)c2c(NCCNCCO)ccc(NCCNCCO)c21 [Mitoxantrone] | inactive: 0.41 |
| COC(=O)[C@@H]1c2cc3c(c(O)c2[C@@H](OC)C[C@@]1(C)O)C(=O)c1c(O)cc2c(c1C3=O)O[C@@H]1O[C@@]2(C)[C@H](O)[C@@H](N(C)C)[C@@H]1O [Nogalamycin compound D] | inactive: 0.966 |
| Cc1nc(-n2nc(-c3ccccc3)cc2-c2ccccc2)sc1C(=O)/C=C/c1ccc(Cl)c(Cl)c1 | inactive: 0.79 |
| CC12CC(Br)(Br)C(=O)C3C1CCCC32 | inactive: 0.89 |
| COc1cc(O)c2c(c1)C(=O)c1cc3c(c(O)c1C2=O)[C@@H](O[C@@H]1O[C@@H](C)[C@H](O)[C@@H](O)[C@H]1OC)[C@H](OC)[C@](C)(O)C3=O [Steffimycin] | inactive: 0.92 |
| Cc1c(Cl)ccc2c1NC(=O)C2(O)C(C(=O)c1ccccc1)c1ccccc1 (centres undefined) | inactive: 0.91 |
| COc1cccc(/C=N\NC(=O)C(C)SC(C)C(=O)N/N=C/c2cccc(OC)c2)c1 (centres undefined) | inactive: 0.46 |
| CC[C@H]1OC(=O)[C@H](C)[C@@H](OC2CC(C)(OC)C(OC(=O)CCCC(=O)O)C(C)O2)[C@H](C)[C@@H](OC2OC(C)CC(N(C)C)C2O)[C@](C)(O)C[C@@H](C)C(=O)[C@H](C)[C@@H](O)[C@]1(C)O (some centres undefined) [Erythromycin Hydrogen Glutarate] | active: 1.33 |
| CC[C@@]1(O)C[C@H](O[C@H]2C[C@H](N(C)C)[C@H](O[C@H]3C[C@H](O)[C@H](O[C@H]4C[C@H](O)[C@H](O)[C@H](C)O4)[C@H](C)O3)[C@H](C)O2)c2c(cc3c(c2O)C(=O)c2c(O)ccc(O)c2C3=O)[C@H]1C(=O)OC | inactive: 1.05 |
| O=C(c1ccccc1)C(c1ccccc1)C1(O)C(=O)Nc2c(Cl)cc(Cl)cc21 (centres undefined) | inactive: 1.22 |
| COc1cc(OC)c2c(C)cc(=O)oc2c1 [5,7-Dimethoxy-4-methylchromen-2-one] | inactive: 1.09 |
| CC(C)C1=CC2=CC[C@@H]3[C@](C)(CCC[C@@]3(C)C(=O)O)[C@H]2CC1 [Abietic Acid] | inactive: 0.79 |
| CC1=C(O)c2ccccc2C(=O)C1=O [Phthiocol] | inactive: 0.79 |
| COc1c2occc2c(OC)c2c(=O)cc(C)oc12 [Khellin] | inactive: 1.08 |
| O=c1oc2cc(O)ccc2c2oc3cc(O)ccc3c12 | inactive: 0.859 |
| N#CCCN(CCC#N)c1ccc(C=Nc2ccc(F)cc2)cc1 | inactive: 0.99 |
| CC(C)(C)NCCC(O)c1cc(C(F)(F)F)nc2c(C(F)(F)F)cccc12 (centres undefined) [1-(2, phosphoric acid] | inactive: 0.85 |
| O=C(O)CC(NC(=O)CP(=O)(O)O)C(=O)O (centres undefined) | inactive: 1.21 |
| CN(C)c1ccc(/C=c2/sc3nc(=O)c(-c4ccccc4NC(=O)C(F)(F)F)nn3c2=O)cc1 | inactive: 1.23 |

Two of the compounds above, with tabs.
SMILES	Kcc2 promoter-driven luciferase activity
CC[C@H]1OC(=O)[C@H](C)[C@@H](OC2CC(C)(OC)C(OC(=O)CCCC(=O)O)C(C)O2)[C@H](C)[C@@H](OC2OC(C)CC(N(C)C)C2O)[C@](C)(O)C[C@@H](C)C(=O)[C@H](C)[C@@H](O)[C@]1(C)O (some centres undefined) [Erythromycin Hydrogen Glutarate]	active: 1.33
CC(C)C1=CC2=CC[C@@H]3[C@](C)(CCC[C@@]3(C)C(=O)O)[C@H]2CC1 [Abietic Acid]	inactive: 0.79
